Measured data: PubChem BioAssay AID504784 (Drosophila RNAi Screening Center, 2011)
The deposit covers about 17,000 reagents; shown is a random part of those that have a named target and a result. 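Each column is one replicate's B-score; the combined score over replicates was not deposited, so single values may mislead.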 A plus sign joins genes that one reagent is predicted to hit.

Purpose: 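Fly genes whose silencing alters how much lipid cells keep in droplets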 (primary screen)
System: Drosophila Kc167 embryonic cells
Knock-down reagent: long dsRNA against Drosophila genes, about 250 ng dsRNA per well
Time to read-out: 4 days
Treatment: cells fed 400 µM oleic acid bound to BSA
Read-out: 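Cells imaged and segmented; ratio of lipid droplet area to nuclear area, log-transformed, then normalised as a B-score over the screen; higher means more stored lipid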
Reading the numbers: droplet/nuclear area B-score: higher = more stored lipid (overstorage)

gene knocked down,DRSC id,"droplet/nuclear area B-score, replicate 1","droplet/nuclear area B-score, replicate 2","droplet/nuclear area B-score, replicate 3"
Pstk + CG14210 + Tim9b,DRSC19566,-1.83,0.0608,
Isha,DRSC04456,0.206,-2.35,
Reg-5,DRSC04647,-2,-1.47,
CG31115,DRSC13692,0.0199,0.503,
CecB,DRSC16605,-0.619,-0.0141,
CG10055,DRSC12503,0.241,0.806,
Vps29,DRSC00666,0.14,0.917,
CG17593,DRSC00504,-0.183,0.392,
Cpr92A,DRSC16000,-1.51,1.41,
Ptx1,DRSC16804,-0.236,-2.71,
CG2961,DRSC18246,-2.09,-0.36,-0.248
Tsp86D,DRSC15607,0.112,-1.18,
fsd,DRSC06166,-1.4,1.22,
CG9391,DRSC11858,-0.0899,0.703,
CG12926,DRSC06239,1.03,-0.309,-1.04
CG12926,DRSC21930,4.42,0.848,
Sec24CD,DRSC00300,1.22,-0.0263,
OS9 + Hf,DRSC03392,0.782,0.206,
CG6055,DRSC02923,-2.06,1.68,
CG5412,DRSC15796,-0.337,0.126,
TwdlB,DRSC16050,2.18,0.388,
Mal-B2,DRSC02417,0.00618,0.223,
Su(var)2-10,DRSC07721,-2.85,0.104,
CheB93a,DRSC15044,-0.812,-0.0113,
Lectin-galC1,DRSC03362,-0.805,0.441,
CG11279,DRSC09837,0.104,0.0279,
Mob2,DRSC09117,0.974,1.97,
Mob2,DRSC09119,0.28,0.633,
Mob2,DRSC09856,-0.138,0.134,
Mob2,DRSC23274,-1.07,0.488,

Next part, starting with the last 7 of the part before.
gene knocked down,DRSC id,"droplet/nuclear area B-score, replicate 1","droplet/nuclear area B-score, replicate 2","droplet/nuclear area B-score, replicate 3"
CheB93a,DRSC15044,-0.812,-0.0113,
Lectin-galC1,DRSC03362,-0.805,0.441,
CG11279,DRSC09837,0.104,0.0279,
Mob2,DRSC09117,0.974,1.97,
Mob2,DRSC09119,0.28,0.633,
Mob2,DRSC09856,-0.138,0.134,
Mob2,DRSC23274,-1.07,0.488,
CG10383,DRSC02050,-0.907,-1.26,
CG31775 + CG42586,DRSC22289,-0.507,0.0666,
CG31775 + CG42586,DRSC23266,-1.15,-0.281,
CG7896,DRSC16335,4.51,0.688,
UbcE2M,DRSC10828,-0.761,0.344,
CG31769,DRSC01361,0.0814,-1.42,
Dif,DRSC03316,-0.78,0.606,
Sin3A,DRSC07552,0.169,0.528,
gudu,DRSC02820,-0.686,-3.2,
AsnRS-m,DRSC07010,-0.575,0.869,
CG9839,DRSC16574,0.623,2.96,
CG13334,DRSC06369,-0.131,-0.276,
apolpp,DRSC17216,0.102,4.67,
AP-1gamma,DRSC18433,0.438,0.206,-0.311
CG31198,DRSC15891,-1.4,3.44,
Nhe2,DRSC03172,2,0.666,
Nhe2,DRSC03377,0.136,-0.512,
CG17440,DRSC18126,-2.52,0.013,-0.651
CG5327,DRSC06930,-1.92,-0.586,
mRpL40,DRSC15749,1.47,1.94,
CG17683,DRSC21160,0.231,-0.386,
CG2794,DRSC00534,-0.0108,-0.844,
CG31021,DRSC22319,-0.0236,0.00265,
CG14777,DRSC18563,-0.0129,-0.693,
Gr77a,DRSC11446,0.138,-1.51,
Ge-1,DRSC02938,-1.81,-2.27,
Mlc2,DRSC16741,0.0935,1.7,
CG8478,DRSC16427,-0.996,-1.36,
Ir52a,DRSC06262,-0.548,-0.389,
CG14186,DRSC10185,-0.602,-0.873,-0.516
CG12483,DRSC08278,0.159,-0.304,
bab1,DRSC08379,0.177,-0.519,-3.27
bab1,DRSC08709,1.02,-1.11,
bab1,DRSC21882,8.54,0.0998,
lectin-33A,DRSC02529,0.556,0.636,
lectin-33A,DRSC22116,0.454,-2.15,
CG31174,DRSC13518,0.00733,0.937,
CG13364,DRSC17898,1.12,0.927,
CG13364,DRSC21263,1.1,1.75,
CG13151,DRSC06276,0.0977,-0.531,
CG31752,DRSC22599,-0.0281,0.113,
CG8051,DRSC20077,-0.596,0.167,
obst-B,DRSC01987,-1.39,-0.134,
lncRNA:CR32730,DRSC22957,-0.00952,2.65,
CG42843 (retired record),DRSC02231,-1.19,0.141,
CG42843 (retired record),DRSC02233,-0.664,-1.54,
Mkp + CG34140,DRSC08585,-1.75,-4.52,
Tim23,DRSC21240,-2.26,2.62,
bun,DRSC01255,0.025,-0.0534,
bun,DRSC03500,3.62,0.876,
bun,DRSC23041,1.19,1.58,
CG5776,DRSC02891,,1.2,
Ube4B,DRSC03277,-1.49,0.888,
